Values of other authors, collected in PMC5974124, “Equilibrium Thermodynamics, Formation, and Dissociation Kinetics of Trivalent Iron and Gallium Complexes of Triazacyclononane-Triphosphinate (TRAP) Chelators: Unraveling the Foundations of Highly Selective Ga-68 Labeling” (Frontiers in Chemistry, 2018).

Parameters: method as in Simecek et al., [2013]; Simecek et al., [2014]
Details: threefold stoichiometric excess of Fe^III over chelator, ref Simecek et al., [2013], [2014]; cited from earlier work

Structure (SMILES)	^68Ga incorporation in presence of Fe^III
O=C(O)CCP(=O)(O)CN1CCN(CP(=O)(O)CO)CCN(CP(=O)(O)CO)CC1 [NOPO]	did not result in a significant decrease
O=C(O)CN1CCN(CC(=O)O)CCN(CC(=O)O)CC1 [NOTA^3−, 1,4,7-triazacyclononane-1,4,7-triacetic acid]	almost completely inhibited
